Binding data for one molecule are collected here from patent US20250115663A1.

These are yes or no findings as the source states them, for the method shown. A result given as binding can be weak or reduced; the word gives no strength.

This assay has as its target kappa-sCD40(1-94)-Flag mutant fragment B (multiple mutations of residues 13-15). The experiment in a line: ELISA, mutated kappa-sCD40(1-94)-Flag captured on anti-Flag.

B1: anti-CD40 human monoclonal antibody 3C3 (antibody, human IgG2, kappa, V domains shown)
VH: QVQLVESGGGVVQPGRSLRLSCAGSGFIFSRYGMYWVRQAPGKGLEWVAVIWYDGSYKYYADSVKGRFTISRDNSKNTLYLQMNSLRAEDTAVYYCARESPWYYFDYWGQGTLVTVSS
VL: DIQMTQSPSSLSASVGDRVTITCRASQGISNYLAWYQQKPGKVPKLLIYAASTLQSGVPSRFSGSGSGTDFTLTISSLQPEDVATYYCQKYKSAPFTFGPGTKVDIKR
On to B1, for which the binding result is recorded as “binds”.
